Some results were stated once for a whole list of compounds, not compound by compound.
Assays:
Type in all cases: in vivo
Pyrenophora teres = experiment: Test of effect of preventing Pyrenophora teres on barley, foliar spray; settings: 200 ppm foliar spray; barley (Nishinohoshi); inoculated five days after spraying
[1] = system: Mycosphaerella graminicola (Septoria tritici); experiment: Test of effect of preventing Mycosphaerella graminicola (Septoria tritici) on wheat, foliar spray; settings: 13 ppm foliar spray; wheat (Apogee); inoculated two days after spraying
Procedure: The control effect was evaluated by visually observing the area of a lesion on a test plant in investigation, and comparing the area of a lesion on a plant treated with a test composition and the area of a lesion on a non-treated plant.
Test of Effect of Preventing Mycosphaerella graminicola (Septoria tritici)
A plastic pot was stuffed with a soil, wheat (variety; Apogee) was sown on this, and allowed to grow in a greenhouse for 10 days. […] After spraying, the plant was air-dried, and two days after, inoculated with an aqueous suspension of Septoria tritici spores by spraying. After inoculation, the plant was first allowed to stand under humid condition at 18° C. for 3 days, further, allowed to stand for 14 to 18 days under illumination, then, the lesion area was checked. As a result, the lesion on the plant treated with the present carboxamide compounds (1), (2) and (3) was 10% or less of the lesion area on a non-treated plant.
The same test was carried out excepting the application concentration, using racemic N-(1,1,3-trimethylindan-4-yl)-1-methyl-3-trifluoromethylpyrazole-4-carboxylic amide (hereinafter, referred to as racemic compound (A)) instead of the present carboxamide compound. As a result, the lesion area on the plant treated with 50 ppm of the racemic compound (A) was 75% or more of the lesion area on a non-treated plant.

Puccinia triticina = experiment: Test of effect of preventing Puccinia triticina on wheat, foliar spray; settings: 200 ppm foliar spray; wheat (Shirogane); inoculated five days after spraying

Measured: lesion area on treated plant relative to lesion area on a non-treated plant

C[C@@H]1CC(C)(C)c2cccc(NC(=O)c3cn(C)nc3C(F)(F)F)c21 [present carboxamide compound (1), (R)-(−)-N-(1,1,3-trimethylindan-4-yl)-1-methyl-3-trifluoromethylpyrazole-4-carboxamide]
≤ 10%: all assays above

Cc1nn(C)c(C)c1C(=O)Nc1cccc2c1[C@H](C)CC2(C)C [present carboxamide compound (3), (R)-(−)-N-(1,1,3-trimethylindan-4-yl)-1,3,5-trimethylpyrazole-4-carboxamide]
≤ 10%: all assays above

Source: patent US8580836B2, “Plant disease control composition and method of controlling plant disease” (Sumitomo Chemical Company, Limited, priority 2010, dated 2013)
